Source: PubChem BioAssay AID488840 (Broad Institute, 2010)
The campaign covered roughly 1,400 compounds. About 45 (3%) were called active.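 The calls were made as follows: active = half-maximal dose of signal decrease from fit no higher than ten times the top valid tested dose; inconclusive = fit invalid, or curve flat with 30 to 70% inhibition; inactive = the rest.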 The list shows a part of the results. Entries with a potency or affinity are not part of this list.

Chains of the proteins cited; added tags and fusions are not shown. Lines headed by an entry give the natural chain unless they say otherwise; changes in a name come on top.
UniProt O75164: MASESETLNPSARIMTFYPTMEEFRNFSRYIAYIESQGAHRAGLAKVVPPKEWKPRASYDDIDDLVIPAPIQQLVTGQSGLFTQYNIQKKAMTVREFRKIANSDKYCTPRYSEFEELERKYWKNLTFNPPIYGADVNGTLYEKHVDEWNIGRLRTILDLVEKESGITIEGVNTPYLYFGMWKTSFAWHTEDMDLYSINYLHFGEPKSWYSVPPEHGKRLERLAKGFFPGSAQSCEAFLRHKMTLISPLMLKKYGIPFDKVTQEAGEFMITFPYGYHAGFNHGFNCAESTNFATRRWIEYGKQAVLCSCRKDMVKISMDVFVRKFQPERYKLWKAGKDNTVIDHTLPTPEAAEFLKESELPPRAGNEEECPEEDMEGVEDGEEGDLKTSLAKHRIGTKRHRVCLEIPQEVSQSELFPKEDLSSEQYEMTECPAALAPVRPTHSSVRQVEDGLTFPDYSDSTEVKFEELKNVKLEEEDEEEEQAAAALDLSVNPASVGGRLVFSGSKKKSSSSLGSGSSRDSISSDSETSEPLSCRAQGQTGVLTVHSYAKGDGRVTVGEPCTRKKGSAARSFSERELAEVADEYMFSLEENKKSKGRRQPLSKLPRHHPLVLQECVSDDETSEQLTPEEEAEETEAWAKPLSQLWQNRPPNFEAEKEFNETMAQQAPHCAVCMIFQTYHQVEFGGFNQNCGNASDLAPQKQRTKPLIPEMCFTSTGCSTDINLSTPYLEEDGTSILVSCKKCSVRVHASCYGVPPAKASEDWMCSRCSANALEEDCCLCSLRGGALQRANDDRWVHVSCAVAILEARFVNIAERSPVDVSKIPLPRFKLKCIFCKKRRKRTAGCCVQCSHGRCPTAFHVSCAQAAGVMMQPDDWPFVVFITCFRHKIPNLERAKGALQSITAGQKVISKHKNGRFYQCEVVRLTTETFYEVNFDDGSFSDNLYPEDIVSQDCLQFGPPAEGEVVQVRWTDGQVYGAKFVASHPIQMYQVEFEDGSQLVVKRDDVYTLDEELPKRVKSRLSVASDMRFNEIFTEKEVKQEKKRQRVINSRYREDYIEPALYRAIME

The compounds below were run against Lysine-specific demethylase 4A (Homo sapiens) (UniProt O75164) (assay: JMJD2A histone demethylase inhibitors, dose response, selectivity assay for GASC-1 inhibitor project, biochemical, DELFIA europium, cherry-picked samples (AID 488840;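 also: europium signal reports the dimethyl H3K9 product detected by antibody so inhibitors lower it; 0% = median of neutral control wells and -100% = median of positive control wells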)). Conditions: GST-JMJD2A(1-420) H3K9me3 demethylation; at 6 µM (top of the series) unless noted.

Activity change, negative = inhibition, inactive:
Cc1cc(N(CN2CCCC2=O)C(=O)c2ccc(F)cc2)no1 -4.04%
N#CC1=C(C2CC2)CC(c2ccccc2)C(C#N)=C1N (stereo not given) 1.86%
Cn1c(SCC(=O)N2CCCC2=O)nnc1-c1ccccc1F 4.73%
COc1ccc(-c2csc(NNC3=NCCCCC3)n2)cc1 0.166%
CCN(CC)C(=O)[C@H]1CC(CC(=O)NC/C=C(\C)CCC=C(C)C)C(=O)N2CCc3c([nH]c4ccccc34)[C@]12C (stereo not given in full) 7.5%
Cc1ccc(NC(=O)CSc2nc3c(c(=O)[nH]2)CN(Cc2ccc(F)cc2)CC3)cc1C -2.11%
C/C(=N\NC(=S)NCc1ccccc1)c1ccco1 2.89%
COc1cc2c(cc1OC)C(COc1ccc(F)cc1)NCC2 (stereo not given) -1.68%
O=C1CC(=O)N(Cc2ccco2)C(=O)N1 50.8%
C#CCOCCOCCOCCNc1nc(N2CCN(C(=O)[C@H](CCCN=C(N)N)n3cc(C(N)[C@@H](C)CC)nn3)CC2)nc(N2CCN(C(=O)[C@H](CCC(=O)O)n3cc([C@@H](N)[C@H](C)CC)nn3)CC2)n1 (stereo not given in full) 1.17%
COC(=O)[C@]1(C)N[C@H](CN(C)C(=O)NC(C)C)[C@@H]2C(=O)N(Cc3ccccc3)C(=O)[C@@H]21 -0.959%
Cc1ccc(C2CC(c3cccc(Br)c3)Nc3nnnn32)cc1 (stereo not given) 1.72%
Cc1cc2cc3c(cc2nc1SCC(=O)N1CCOCC1)OCO3 -2.6%
C[C@H]1CN([C@@H](C)CO)C(=O)c2cccc(NS(=O)(=O)c3ccc(F)cc3)c2O[C@H]1CN(C)S(=O)(=O)c1cn(C)cn1 3.04%
O=C(Nc1cc(S(=O)(=O)N2CCOCC2)ccc1N1CCCC1)c1ccc(F)cc1 3.87%
CCC(=O)N1c2ccc(S(=O)(=O)CCC(=O)NCCC3=CCCCC3)cc2CC1C (stereo not given) -3.1%
COc1ccccc1N1CCN(C(=O)CSc2nc(C)cc(=O)[nH]2)CC1 -2.92%
Cc1cccc(NC(=O)/C(=C\c2ccc([N+](=O)[O-])o2)NC(=O)c2ccc(Cl)cc2)c1 3.18%
CCn1c(SCC(=O)Nc2nc(C)cs2)nnc1-c1ccncc1 1%
Brc1ccc(-c2csc(N3CCc4ccccc4C3)n2)cc1 4.32%
COc1ccc(NC(=O)N(C)C[C@H]2Oc3c(NC(=O)Nc4ccccc4)cccc3C(=O)N([C@H](C)CO)C[C@@H]2C)cc1 4.44%
CCOC(=O)C1=C(Cc2ccc(F)cc2)C(=O)c2ccccc2C1=O -0.812%
Cc1ccc(C(=O)NCC(=O)OCC(=O)Nc2ccc(Cl)cc2C(F)(F)F)cc1C -5.13%
Cc1ccc(NC(=O)C(=O)NCCN2CCN(C(=O)C(c3ccccc3)c3ccccc3)CC2)cc1 5.03%
COc1ccccc1-n1c(SCC(=O)N2CCCC2)nc2cccnc21 4.3%
Cc1ccc(O)c(C(=O)c2cc(C#N)c(=O)n(CC3CCCO3)c2)c1 (stereo not given) -1%
CC(C)(C)n1nnnc1C(c1cccnc1)N1CCN(c2ccccc2)CC1 (stereo not given) -0.802%
COc1cc(NC(=O)CSc2nnnn2Cc2ccc3c(c2)OCO3)cc(OC)c1 -2.48%
COc1ccc(NC(=O)CCCN(C)S(=O)(=O)c2ccc(C)cc2)cc1 2.38%
Cc1[nH][nH]c(=O)c1C(c1c(C)[nH][nH]c1=O)c1cn(Cc2cccc3ccccc23)c2ccccc12 -3.25%
CCN(CC(=O)NCC1CCCO1)S(=O)(=O)c1ccc(Cl)cc1 (stereo not given) 1.3%
O=C(CN1C(=O)c2ccccc2C1=O)NCC1COc2ccccc2O1 (stereo not given) 4.76%
CCN(C[C@H]1N[C@@](C)(C(=O)OC)[C@H]2C(=O)N(C)C(=O)[C@@H]12)C(=O)Nc1ccc(OC)cc1 -5.46%
COC(=O)COc1ccc(S(=O)(=O)N2CCOCC2)cc1C 3.53%
COc1ccc(CNC(=O)C2(CC3CC(c4ccccc4)=NO3)CCNCC2)cc1 (stereo not given) 2.92%
CSc1nsc(SCC(=O)Nc2c(C)n(C)n(-c3ccccc3)c2=O)n1 -4.06%
COc1ccccc1NC(=O)c1cccs1 -1.95%
c1ccc(Nc2n[nH]nc2-c2ccccc2)cc1 3.68%
Cc1cc(Cl)ccc1OCc1nc(-c2ccncc2)no1 7.24%
COC(C/C=C\[C@H](O)[C@H](C)OCc1ccccc1)OC 2.1%
Cn1c(=O)[nH]c(=O)c2c1nc(N1CCOCC1)n2CCc1ccccc1 -2.37%
COc1ccccc1C(=O)OCc1c(-c2ccccc2)ncc2ccccc12 -0.648%
OCc1ccc(-c2nn(Cc3ccccc3)c3ccccc23)o1 -1.29%
COc1ccc(OC)c(C2=NOC(C(=O)NCCN3CCOCC3)C2)c1 (stereo not given) 3.92%
CC(=O)Nc1ccc(NC(=O)CSc2ncnn2-c2ccccc2)cc1 -3.98%
COc1ccc(OC)c(/C=N/NC(=O)CNC(=O)c2ccc(S(=O)(=O)N3CCOCC3)cc2)c1 -4.35%
CCC(=O)N1CCc2cc(Br)cc(S(=O)(=O)CC(=O)OC)c21 -2.94%
CCN(c1ccc(NC(=O)CCNC(=O)c2ccco2)cc1)C(C)C 1.4%
CC1CC(NC(=O)N(C)C)N(C)C(=O)N1 (stereo not given) 2.56%
CC(CC(=O)Nc1cc([N+](=O)[O-])ccc1Cl)c1ccccc1 (stereo not given) 4.4%
CCOC(=O)c1c(S(=O)(=O)NCC(=O)Nc2cccc(C)c2C)c(C)n(C)c1C 5.71%
CCCCCCC(=O)N1CCN(c2cc3c(cc2F)c(=O)c(C(=O)O)cn3CC)CC1 -2.15%
O=C(Nc1cccnc1)c1ccc2c(c1)C(=O)N(Cc1cccnc1)C2=O -1.63%
CCn1nnnc1SCC(=O)NCc1cccs1 5.59%
CCC(C)(C)NC(=O)C(c1cccn1C)N(Cc1ccc(OC)cc1)C(=O)Cn1nnc2ccccc21 (stereo not given) 5.84%

Five records picked at random from those above, as already listed:
Activity change, negative = inhibition, inactive:
CCOC(=O)C1=C(Cc2ccc(F)cc2)C(=O)c2ccccc2C1=O -0.812%
Cc1cc(Cl)ccc1OCc1nc(-c2ccncc2)no1 7.24%
CCN(C[C@H]1N[C@@](C)(C(=O)OC)[C@H]2C(=O)N(C)C(=O)[C@@H]12)C(=O)Nc1ccc(OC)cc1 -5.46%
O=C1CC(=O)N(Cc2ccco2)C(=O)N1 50.8%
COC(C/C=C\[C@H](O)[C@H](C)OCc1ccccc1)OC 2.1%
